Measurements taken from the supplement of paper PMC10849652.
Some of the results follow.

By UniProt entry, the sequences of proteins in these tests, tags left out. Where a name states a change or a piece, a line headed by the entry shows the natural chain unless it says otherwise.
UniProt O15372, whole entry, looked up: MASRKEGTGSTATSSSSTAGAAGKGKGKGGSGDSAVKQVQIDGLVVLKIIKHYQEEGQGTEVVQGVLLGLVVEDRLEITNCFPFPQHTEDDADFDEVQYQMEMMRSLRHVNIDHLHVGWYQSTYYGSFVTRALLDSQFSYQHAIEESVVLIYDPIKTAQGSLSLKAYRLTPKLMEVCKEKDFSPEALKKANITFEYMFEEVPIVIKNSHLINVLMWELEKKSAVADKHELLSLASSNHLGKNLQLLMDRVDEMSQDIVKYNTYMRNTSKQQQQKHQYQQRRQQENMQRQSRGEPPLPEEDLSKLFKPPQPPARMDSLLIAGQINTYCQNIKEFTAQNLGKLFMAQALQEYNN
UniProt Q92556, whole entry, looked up: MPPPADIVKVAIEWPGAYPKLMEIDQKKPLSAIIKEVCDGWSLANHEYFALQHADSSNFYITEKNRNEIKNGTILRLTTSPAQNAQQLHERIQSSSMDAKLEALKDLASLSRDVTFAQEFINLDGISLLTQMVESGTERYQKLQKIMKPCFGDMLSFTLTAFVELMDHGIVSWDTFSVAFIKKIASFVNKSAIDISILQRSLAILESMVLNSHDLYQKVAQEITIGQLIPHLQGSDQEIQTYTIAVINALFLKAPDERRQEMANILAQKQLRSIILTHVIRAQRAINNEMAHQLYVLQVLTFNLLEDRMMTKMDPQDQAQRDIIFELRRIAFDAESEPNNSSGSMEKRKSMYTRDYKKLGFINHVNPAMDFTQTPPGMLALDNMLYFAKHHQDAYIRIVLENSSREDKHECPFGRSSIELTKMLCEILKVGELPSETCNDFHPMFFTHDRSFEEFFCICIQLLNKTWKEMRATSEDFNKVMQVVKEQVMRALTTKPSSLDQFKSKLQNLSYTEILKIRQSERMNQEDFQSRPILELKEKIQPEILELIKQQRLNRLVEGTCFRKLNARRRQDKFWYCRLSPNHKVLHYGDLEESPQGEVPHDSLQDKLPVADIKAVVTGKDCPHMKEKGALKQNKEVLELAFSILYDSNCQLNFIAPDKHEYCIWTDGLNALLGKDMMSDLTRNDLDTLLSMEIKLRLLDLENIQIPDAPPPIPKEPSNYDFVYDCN
UniProt Q9GZV4: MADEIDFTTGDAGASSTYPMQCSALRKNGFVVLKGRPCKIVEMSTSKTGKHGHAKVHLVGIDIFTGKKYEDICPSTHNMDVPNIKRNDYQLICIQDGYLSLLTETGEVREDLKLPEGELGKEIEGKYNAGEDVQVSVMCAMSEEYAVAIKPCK
UniProt Q14152, whole entry, looked up: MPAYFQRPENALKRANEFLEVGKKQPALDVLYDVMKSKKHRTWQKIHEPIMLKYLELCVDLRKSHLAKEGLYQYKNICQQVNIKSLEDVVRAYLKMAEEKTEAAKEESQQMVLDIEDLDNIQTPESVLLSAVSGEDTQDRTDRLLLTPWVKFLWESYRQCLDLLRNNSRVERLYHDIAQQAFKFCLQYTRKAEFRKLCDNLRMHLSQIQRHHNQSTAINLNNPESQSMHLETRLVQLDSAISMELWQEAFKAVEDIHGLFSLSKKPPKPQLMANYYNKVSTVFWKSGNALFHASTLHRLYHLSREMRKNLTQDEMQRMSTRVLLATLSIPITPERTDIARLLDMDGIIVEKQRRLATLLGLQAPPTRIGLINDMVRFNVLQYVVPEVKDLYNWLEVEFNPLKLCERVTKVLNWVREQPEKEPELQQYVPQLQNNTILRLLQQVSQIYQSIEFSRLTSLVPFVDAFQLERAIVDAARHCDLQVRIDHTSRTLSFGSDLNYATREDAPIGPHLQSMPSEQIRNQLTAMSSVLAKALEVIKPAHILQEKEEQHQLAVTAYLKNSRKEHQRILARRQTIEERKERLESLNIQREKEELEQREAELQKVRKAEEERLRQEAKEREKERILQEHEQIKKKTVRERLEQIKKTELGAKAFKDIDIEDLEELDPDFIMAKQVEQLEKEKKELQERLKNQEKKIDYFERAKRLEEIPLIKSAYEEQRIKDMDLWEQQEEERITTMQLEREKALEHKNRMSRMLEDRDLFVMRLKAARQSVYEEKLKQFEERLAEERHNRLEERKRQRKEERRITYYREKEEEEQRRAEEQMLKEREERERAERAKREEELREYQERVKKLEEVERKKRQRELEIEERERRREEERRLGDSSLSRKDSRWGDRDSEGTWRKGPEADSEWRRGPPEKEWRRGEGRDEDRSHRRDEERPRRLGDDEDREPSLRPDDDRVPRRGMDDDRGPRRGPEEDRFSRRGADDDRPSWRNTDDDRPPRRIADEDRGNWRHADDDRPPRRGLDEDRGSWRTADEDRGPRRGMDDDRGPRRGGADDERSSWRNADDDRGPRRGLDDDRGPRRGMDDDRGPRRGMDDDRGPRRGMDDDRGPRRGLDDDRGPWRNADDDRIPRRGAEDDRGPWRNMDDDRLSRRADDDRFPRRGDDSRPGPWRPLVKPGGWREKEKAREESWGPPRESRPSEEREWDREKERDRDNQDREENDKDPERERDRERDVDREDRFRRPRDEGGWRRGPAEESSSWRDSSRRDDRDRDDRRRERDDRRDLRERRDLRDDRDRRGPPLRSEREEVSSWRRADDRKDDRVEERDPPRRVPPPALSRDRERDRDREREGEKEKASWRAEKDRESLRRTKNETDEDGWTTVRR
UniProt P09104, whole entry, looked up: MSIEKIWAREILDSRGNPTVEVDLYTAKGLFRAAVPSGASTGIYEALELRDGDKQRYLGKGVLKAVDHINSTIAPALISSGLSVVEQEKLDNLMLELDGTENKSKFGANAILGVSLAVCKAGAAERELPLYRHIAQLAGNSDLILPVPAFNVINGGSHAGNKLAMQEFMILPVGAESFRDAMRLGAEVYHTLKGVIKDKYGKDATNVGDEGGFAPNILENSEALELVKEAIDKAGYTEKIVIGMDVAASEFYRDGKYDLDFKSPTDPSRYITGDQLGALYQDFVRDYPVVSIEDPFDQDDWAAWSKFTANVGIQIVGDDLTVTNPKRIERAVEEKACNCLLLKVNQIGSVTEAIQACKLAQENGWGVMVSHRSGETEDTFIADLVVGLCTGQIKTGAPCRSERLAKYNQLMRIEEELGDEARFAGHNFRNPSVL
UniProt Q13144, whole entry, looked up: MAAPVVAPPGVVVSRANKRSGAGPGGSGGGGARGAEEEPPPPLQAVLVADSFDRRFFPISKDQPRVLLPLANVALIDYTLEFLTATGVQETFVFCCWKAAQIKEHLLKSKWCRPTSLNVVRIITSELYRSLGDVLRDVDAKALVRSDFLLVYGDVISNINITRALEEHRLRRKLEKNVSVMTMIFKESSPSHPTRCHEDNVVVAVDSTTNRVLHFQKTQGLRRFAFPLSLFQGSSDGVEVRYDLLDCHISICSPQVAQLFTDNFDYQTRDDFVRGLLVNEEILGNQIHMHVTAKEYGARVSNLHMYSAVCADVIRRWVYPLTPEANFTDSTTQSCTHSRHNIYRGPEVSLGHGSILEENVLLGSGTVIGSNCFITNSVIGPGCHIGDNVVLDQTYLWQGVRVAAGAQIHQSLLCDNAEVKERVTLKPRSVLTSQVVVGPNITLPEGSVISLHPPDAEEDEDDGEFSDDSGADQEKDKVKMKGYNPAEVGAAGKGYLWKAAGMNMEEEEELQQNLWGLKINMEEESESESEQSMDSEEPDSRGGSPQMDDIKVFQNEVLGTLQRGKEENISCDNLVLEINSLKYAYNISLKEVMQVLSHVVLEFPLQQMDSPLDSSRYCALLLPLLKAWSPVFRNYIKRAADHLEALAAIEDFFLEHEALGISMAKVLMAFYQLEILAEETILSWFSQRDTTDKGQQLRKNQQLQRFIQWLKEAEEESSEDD
UniProt Q9UI10, whole entry, looked up: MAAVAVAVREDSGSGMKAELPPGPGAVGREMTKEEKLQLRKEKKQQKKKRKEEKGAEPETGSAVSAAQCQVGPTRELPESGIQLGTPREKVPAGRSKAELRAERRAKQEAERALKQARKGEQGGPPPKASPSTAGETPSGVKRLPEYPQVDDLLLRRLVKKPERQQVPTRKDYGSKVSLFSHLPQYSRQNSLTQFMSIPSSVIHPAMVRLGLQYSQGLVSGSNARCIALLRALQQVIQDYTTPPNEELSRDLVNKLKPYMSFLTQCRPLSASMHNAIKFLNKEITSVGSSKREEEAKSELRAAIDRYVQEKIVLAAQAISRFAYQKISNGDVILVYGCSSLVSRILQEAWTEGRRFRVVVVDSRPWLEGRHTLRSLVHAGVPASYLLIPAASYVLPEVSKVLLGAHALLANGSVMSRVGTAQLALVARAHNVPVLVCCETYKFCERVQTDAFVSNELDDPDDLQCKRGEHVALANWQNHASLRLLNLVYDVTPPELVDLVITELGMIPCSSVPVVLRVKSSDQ
UniProt P23588, whole entry, looked up: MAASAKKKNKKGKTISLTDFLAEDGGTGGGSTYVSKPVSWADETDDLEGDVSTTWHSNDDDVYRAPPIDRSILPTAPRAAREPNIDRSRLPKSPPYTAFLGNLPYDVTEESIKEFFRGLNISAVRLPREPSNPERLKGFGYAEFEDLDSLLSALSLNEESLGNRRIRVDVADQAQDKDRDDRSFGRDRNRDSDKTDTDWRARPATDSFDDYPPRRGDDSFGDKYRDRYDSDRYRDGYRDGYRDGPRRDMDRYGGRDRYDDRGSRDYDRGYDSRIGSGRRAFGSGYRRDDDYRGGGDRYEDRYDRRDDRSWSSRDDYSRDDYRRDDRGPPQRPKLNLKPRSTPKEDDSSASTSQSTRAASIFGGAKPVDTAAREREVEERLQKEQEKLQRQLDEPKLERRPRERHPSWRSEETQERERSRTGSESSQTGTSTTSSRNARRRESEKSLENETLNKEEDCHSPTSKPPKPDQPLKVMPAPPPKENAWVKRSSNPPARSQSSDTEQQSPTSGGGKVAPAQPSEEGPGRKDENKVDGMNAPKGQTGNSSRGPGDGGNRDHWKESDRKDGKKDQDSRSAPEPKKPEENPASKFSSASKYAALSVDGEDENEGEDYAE
UniProt Q9Y262, whole entry, looked up: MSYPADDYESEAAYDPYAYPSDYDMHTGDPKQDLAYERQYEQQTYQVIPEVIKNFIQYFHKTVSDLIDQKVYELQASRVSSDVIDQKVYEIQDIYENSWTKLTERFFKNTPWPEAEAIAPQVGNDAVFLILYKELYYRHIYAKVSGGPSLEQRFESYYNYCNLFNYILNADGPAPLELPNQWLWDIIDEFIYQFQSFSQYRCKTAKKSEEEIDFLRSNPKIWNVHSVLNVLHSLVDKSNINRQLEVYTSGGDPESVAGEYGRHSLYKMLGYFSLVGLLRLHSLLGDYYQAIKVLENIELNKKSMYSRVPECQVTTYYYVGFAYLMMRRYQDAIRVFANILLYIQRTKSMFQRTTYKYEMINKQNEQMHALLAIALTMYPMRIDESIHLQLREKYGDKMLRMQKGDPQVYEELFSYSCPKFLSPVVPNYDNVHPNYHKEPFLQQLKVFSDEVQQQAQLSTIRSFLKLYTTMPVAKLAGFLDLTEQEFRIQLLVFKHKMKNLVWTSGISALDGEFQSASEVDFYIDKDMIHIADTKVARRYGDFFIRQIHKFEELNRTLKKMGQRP
UniProt O94919: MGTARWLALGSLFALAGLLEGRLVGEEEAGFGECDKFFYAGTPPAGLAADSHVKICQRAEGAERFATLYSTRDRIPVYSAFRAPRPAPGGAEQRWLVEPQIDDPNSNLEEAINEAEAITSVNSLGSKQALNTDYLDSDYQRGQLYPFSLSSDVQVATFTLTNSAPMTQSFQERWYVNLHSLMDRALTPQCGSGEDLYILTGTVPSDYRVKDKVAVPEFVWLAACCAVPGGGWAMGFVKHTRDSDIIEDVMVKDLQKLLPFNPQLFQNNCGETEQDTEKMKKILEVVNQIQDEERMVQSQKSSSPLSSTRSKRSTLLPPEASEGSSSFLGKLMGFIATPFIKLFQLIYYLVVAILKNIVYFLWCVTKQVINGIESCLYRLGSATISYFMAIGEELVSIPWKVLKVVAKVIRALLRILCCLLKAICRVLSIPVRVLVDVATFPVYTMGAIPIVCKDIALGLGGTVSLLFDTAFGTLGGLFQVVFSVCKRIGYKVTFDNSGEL
UniProt P41214: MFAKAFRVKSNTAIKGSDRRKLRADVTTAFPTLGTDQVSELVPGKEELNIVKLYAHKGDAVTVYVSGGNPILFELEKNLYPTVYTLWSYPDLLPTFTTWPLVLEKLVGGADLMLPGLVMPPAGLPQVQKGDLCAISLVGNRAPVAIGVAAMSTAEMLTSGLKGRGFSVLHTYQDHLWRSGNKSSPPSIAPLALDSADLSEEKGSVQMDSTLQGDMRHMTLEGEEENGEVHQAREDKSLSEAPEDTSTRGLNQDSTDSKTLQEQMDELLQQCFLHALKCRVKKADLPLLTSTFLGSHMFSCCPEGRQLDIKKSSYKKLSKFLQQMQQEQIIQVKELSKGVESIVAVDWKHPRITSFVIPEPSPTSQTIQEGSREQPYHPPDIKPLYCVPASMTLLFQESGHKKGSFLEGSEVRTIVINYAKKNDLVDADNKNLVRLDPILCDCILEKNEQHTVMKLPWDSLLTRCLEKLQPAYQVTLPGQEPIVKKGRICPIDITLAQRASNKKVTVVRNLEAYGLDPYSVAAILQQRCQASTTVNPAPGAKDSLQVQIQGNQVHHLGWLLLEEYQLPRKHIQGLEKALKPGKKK

Columns and labels:
Assay in all cases: log2 fold change, soluble protein after heating vs DMSO (PISA); higher = thermal stabilisation; K562 lysate, 10 uM; active = over 0.2 and 3.5 SD of the protein, either way, in both replicates (recomputed)
[1] = compound: C1=CC=C(C=C1)[C@H](COC2=CC3=C(C=C2)NC(=O)N3)NC(=O)C4=CC=CN(C4=O)CC5=CC(=C(C=C5)F)F
In short: (§1)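 Following dounce homogenisation of K562 pellets in PBS pH 7.4 with 1 mM MgCl2, crude extract at 1 mg/mL protein was incubated for 30 min with 10 μM compound. Aliquots were then heated for 3 min over 48°C-58°C and pooled, NP-40 was added to 0.5% at 4°C, and soluble protein was recovered as the supernatant at 21,000xg for 90 min. Channel-sum-equalised TMTpro 16plex LC-MS/MS quantified this protein. Each value, from duplicates, is a log-two fold change in thermal stability relative to solvent controls.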

[2] = compound: CC1=C(SC2=C1C(=N[C@H](C3=NN=C(N32)C)CC(=O)N)C4=CC=C(C=C4)Cl)C
In short: as §1

[3] = compound: CC1=C2C(=CC=C1)N=C(N(C2=O)C3=CC=CC=C3C)CN4C=NC5=C(N=CN=C54)N
In short: as §1

[4] = compound: Cc1sc2c(c1C)C(c1ccc(Cl)cc1)=N[C@@H](CC(=O)OC(C)(C)C)c1nnc(C)n1-2
In short: as §1

[5] = compound: c1ccc([C@@H]2C[C@H]2NC2CCNCC2)cc1
In short: as §1

Measured: log2 fold change

EIF3H (UniProt O15372)
inactive: [1] 0.057 | [2] -0.01 | [3] -0.014 | [4] -0.039 | [5] -0.008

ELOVL5 isoform 2 (UniProt Q9NYP7)
inactive: [1] -0.05 | [2] -0.003 | [3] 0.074 | [4] -0.122 | [5] 0.016

EPB41L2 (UniProt O43491)
inactive: [1] -0.003 | [2] 0.019 | [3] 0.008 | [4] -0.007 | [5] 0.032

EMC8 (UniProt O43402)
inactive: [1] -0.014 | [2] 0.037 | [3] -0.002 | [4] 0.019 | [5] 0.026

EIF4E isoform 2 (UniProt P06730)
inactive: [1] 0.038 | [2] 0.029 | [3] 0.009 | [4] 0.048 | [5] -0.031

ERGIC2 (UniProt Q96RQ1)
inactive: [1] -0.128 | [2] -0.001 | [3] -0.044 | [4] 0.233 | [5] 0.069

ELAC2 (UniProt Q9BQ52)
inactive: [1] 0.01 | [2] -0.011 | [3] 0.008 | [4] 0.023 | [5] -0.091

ELMO1 (UniProt Q92556)
inactive: [1] -0.043 | [2] 0.133 | [3] 0.039 | [4] -0.104 | [5] 0.007

ENOSF1 (UniProt Q7L5Y1)
inactive: [1] 0.02 | [2] 0.012 | [3] -0.011 | [4] -0.013 | [5] -0.012

EIF5A2 (UniProt Q9GZV4)
inactive: [1] 0.025 | [2] 0.01 | [3] 0.017 | [4] -0.108 | [5] -0.058

EPHX1 (UniProt P07099)
inactive: [1] -0.021 | [2] -0.015 | [3] -0.008 | [4] 0.022 | [5] -0.012

ELP2 isoform 6 (UniProt Q6IA86)
inactive: [1] 0.021 | [2] -0.009 | [3] 0.004 | [4] -0.013 | [5] 0

ERAP1 isoform 2 (UniProt Q9NZ08)
inactive: [1] 0.021 | [2] 0.011 | [3] 0 | [4] 0.054 | [5] 0.018

ERCC2 (UniProt P18074)
inactive: [1] -0.029 | [2] 0.03 | [3] 0.018 | [4] 0.017 | [5] 0.052

ERAL1 (UniProt O75616)
inactive: [1] -0.048 | [2] 0.033 | [3] 0.007 | [4] 0.009 | [5] 0.075

EPCAM (UniProt P16422)
inactive: [1] 0.021 | [2] 0.021 | [3] -0.124 | [4] -0.124 | [5] -0.026

EIF4A1 (UniProt P60842)
inactive: [1] 0.03 | [2] 0.046 | [3] -0.001 | [4] -0.022 | [5] 0.004

ERCC5 (UniProt P28715)
inactive: [1] 0.022 | [2] 0.027 | [3] -0.029 | [4] -0.031 | [5] -0.018

ELK1 (UniProt P19419)
inactive: [1] -0.171 | [2] -0.007 | [3] 0.391 | [4] 0.122 | [5] -0.024

EIF2B2 (UniProt P49770)
inactive: [1] -0.005 | [2] -0.006 | [3] -0.003 | [4] 0.031 | [5] 0.016

EP400P1 isoform 6 (UniProt Q6ZTU2)
inactive: [1] 0.065 | [2] -0.072 | [3] -0.03 | [4] 0.022 | [5] -0.128

EIF3E (UniProt P60228)
inactive: [1] -0.01 | [2] 0.028 | [3] 0.025 | [4] 0.045 | [5] 0.094

EOGT (UniProt Q5NDL2)
inactive: [1] 0.005 | [2] 0.025 | [3] 0.078 | [4] -0.029 | [5] 0

Quoted at random: 3 records from the list, in no set order.
EIF2B2 (UniProt P49770)
inactive: [1] -0.005 | [2] -0.006 | [3] -0.003 | [4] 0.031 | [5] 0.016

EIF3E (UniProt P60228)
inactive: [1] -0.01 | [2] 0.028 | [3] 0.025 | [4] 0.045 | [5] 0.094

EP400P1 isoform 6 (UniProt Q6ZTU2)
inactive: [1] 0.065 | [2] -0.072 | [3] -0.03 | [4] 0.022 | [5] -0.128

Next part

EIF3A (UniProt Q14152)
inactive: [1] 0.013 | [2] 0.032 | [3] 0.033 | [4] -0.024 | [5] 0.024

ELP6 (UniProt Q0PNE2)
inactive: [1] 0.014 | [2] 0.01 | [3] 0.024 | [4] -0.03 | [5] -0.048

EMC10 (UniProt Q5UCC4)
inactive: [1] 0.004 | [2] 0.013 | [3] 0.041 | [4] -0.002 | [5] -0.09

ENO2 (UniProt P09104)
inactive: [1] 0.019 | [2] -0.122 | [3] 0.037 | [4] -0.009 | [5] -0.153

EIF4A3 (UniProt P38919)
inactive: [1] -0.011 | [2] 0.047 | [3] 0.036 | [4] -0.036 | [5] 0

ENO1, A0A2R8YEM5
inactive: [1] 0.026 | [2] -0.096 | [3] -0.048 | [4] -0.028 | [5] -0.21

EMG1 (UniProt Q92979)
inactive: [1] -0.004 | [2] -0.001 | [3] -0.002 | [4] -0.003 | [5] 0.018

EPN2 (UniProt O95208)
inactive: [1] -0.012 | [2] -0.017 | [3] -0.02 | [4] -0.084 | [5] -0.161

EIF2B5 (UniProt Q13144)
inactive: [1] -0.03 | [2] 0.007 | [3] 0.019 | [4] 0.023 | [5] 0.017

EIF2B4 isoform 2 (UniProt Q9UI10)
inactive: [1] -0.026 | [2] 0.04 | [3] 0.037 | [4] -0.007 | [5] 0.042

EIF4B (UniProt P23588)
inactive: [1] 0.026 | [2] 0.002 | [3] -0.002 | [4] -0.016 | [5] -0.038

ELP5 isoform 4 (UniProt Q8TE02)
inactive: [1] 0.001 | [2] 0.041 | [3] 0.034 | [4] -0.021 | [5] -0.09

EPB41L3 (UniProt Q9Y2J2)
inactive: [1] -0.01 | [2] 0.047 | [3] -0.019 | [4] 0.056 | [5] -0.027

EML2 isoform 3 (UniProt O95834)
inactive: [1] -0.05 | [2] 0.018 | [3] -0.016 | [4] 0.027 | [5] 0.067

EMC2 (UniProt Q15006)
inactive: [1] 0.005 | [2] -0.018 | [3] 0.037 | [4] 0.019 | [5] 0.113

EIF3L (UniProt Q9Y262)
inactive: [1] 0.019 | [2] 0.013 | [3] 0.003 | [4] -0.002 | [5] 0.045

ERGIC3 isoform 3 (UniProt Q9Y282)
inactive: [1] -0.084 | [2] 0.036 | [3] -0.058 | [4] 0.062 | [5] 0.034

ELOC (UniProt Q15369)
inactive: [1] -0.063 | [2] 0.011 | [3] 0.006 | [4] 0.053 | [5] 0.032

EIF4EBP2 (UniProt Q13542)
inactive: [1] -0.101 | [2] -0.027 | [3] 0.044 | [4] -0.259 | [5] 0.135

ELOA (UniProt Q14241)
inactive: [1] 0.077 | [2] -0.021 | [3] -0.052 | [4] -0.039 | [5] -0.092

ELAC1 (UniProt Q9H777)
inactive: [1] -0.07 | [2] -0.063 | [3] 0.096 | [5] 0.192

EIF5 (UniProt P55010)
inactive: [1] 0.013 | [2] 0.013 | [3] 0.002 | [4] 0.013 | [5] 0.031

ENDOD1 (UniProt O94919)
inactive: [1] 0.052 | [2] -0.029 | [3] 0.034 | [4] -0.067 | [5] 0.068

EP400 isoform 5 (UniProt Q96L91)
inactive: [1] -0.008 | [2] 0.024 | [3] -0.014 | [4] 0.06 | [5] 0.016

ELF1 (UniProt P32519)
inactive: [1] 0.037 | [2] 0.014 | [3] -0.053 | [4] 0.023 | [5] 0.026

ELL (UniProt P55199)
inactive: [1] 0.031 | [2] -0.028 | [3] 0.127 | [4] -0.005 | [5] 0.036

EIF5A isoform 2 (UniProt P63241)
inactive: [1] 0.028 | [2] -0.011 | [3] -0.007 | [4] 0.01 | [5] 0.002

EIF3I (UniProt Q13347)
inactive: [1] -0.038 | [2] 0.022 | [3] 0.01 | [4] 0.019 | [5] 0.033

ELMOD2 (UniProt Q8IZ81)
inactive: [1] 0.011 | [2] 0.03 | [3] 0.034 | [4] -0.137 | [5] 0.068

EIF2D (UniProt P41214)
inactive: [1] -0.007 | [2] -0.012 | [3] 0.044 | [4] 0.003 | [5] 0.049
